Source: article PMC3404970

Sequences of proteins named here, by UniProt entry; tags and fusion partners are left off. A change or cut given only in a name is not applied to a line headed by its entry.
UniProt P11309: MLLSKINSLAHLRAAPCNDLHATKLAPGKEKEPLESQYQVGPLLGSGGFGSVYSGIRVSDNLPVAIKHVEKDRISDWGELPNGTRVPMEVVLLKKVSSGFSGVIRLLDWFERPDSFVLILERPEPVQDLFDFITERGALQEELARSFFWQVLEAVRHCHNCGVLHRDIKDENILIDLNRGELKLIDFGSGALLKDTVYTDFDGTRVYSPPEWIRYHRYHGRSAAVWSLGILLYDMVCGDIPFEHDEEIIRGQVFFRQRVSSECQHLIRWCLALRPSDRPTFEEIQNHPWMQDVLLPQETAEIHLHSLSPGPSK

Columns and labels:
[1] = target: T1, endogenous VDR of human HaCaT keratinocytes (human (endogenous in HaCaT)) (UniProt P11473); test: pull-down; the same DRIP-2 peptide pull-down from HaCaT lysate, read for endogenous PIM-1 found with endogenous VDR in the captured complex (western blot)
T1 sequence: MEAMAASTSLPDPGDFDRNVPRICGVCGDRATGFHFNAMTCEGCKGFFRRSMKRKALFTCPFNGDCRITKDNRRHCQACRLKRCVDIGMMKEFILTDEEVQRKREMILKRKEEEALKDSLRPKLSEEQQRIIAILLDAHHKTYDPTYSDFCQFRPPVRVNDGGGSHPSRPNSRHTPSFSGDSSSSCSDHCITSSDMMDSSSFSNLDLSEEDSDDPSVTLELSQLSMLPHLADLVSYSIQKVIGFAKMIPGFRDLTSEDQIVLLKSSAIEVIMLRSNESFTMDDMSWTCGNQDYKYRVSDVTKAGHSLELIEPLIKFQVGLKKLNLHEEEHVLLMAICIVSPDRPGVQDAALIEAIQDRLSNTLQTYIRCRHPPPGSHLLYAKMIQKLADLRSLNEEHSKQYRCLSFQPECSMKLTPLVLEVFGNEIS

[2] = target: T2, full-length human vitamin D receptor (VDR), GAL4 DNA-binding domain fusion (VDR-pBD-Gate2 bait) (human) (UniProt P11473); test: two-hybrid; pairwise co-transformation of pBD-Gate2 baits (VDR, DBD, LBD) and pAD-Gate2 preys (PIM-1) into yeast AH109; growth on SD/-leu-trp-ade-his after 4 days at 28 C; empty vectors as negative controls
T2 sequence: T1 sequence

[3] = target: T3, DNA-binding domain of human VDR (DBD, AA 16-125), GAL4 DNA-binding domain fusion (human) (UniProt P11473); test: as above
T3 sequence: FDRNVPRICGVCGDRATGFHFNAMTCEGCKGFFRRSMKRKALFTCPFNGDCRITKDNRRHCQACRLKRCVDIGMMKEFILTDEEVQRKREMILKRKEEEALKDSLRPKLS

[4] = target: T4, ligand-binding domain of human VDR (LBD, amino acids 111-427), GAL4 DNA-binding domain fusion (human) (UniProt P11473); test: as above
T4 sequence: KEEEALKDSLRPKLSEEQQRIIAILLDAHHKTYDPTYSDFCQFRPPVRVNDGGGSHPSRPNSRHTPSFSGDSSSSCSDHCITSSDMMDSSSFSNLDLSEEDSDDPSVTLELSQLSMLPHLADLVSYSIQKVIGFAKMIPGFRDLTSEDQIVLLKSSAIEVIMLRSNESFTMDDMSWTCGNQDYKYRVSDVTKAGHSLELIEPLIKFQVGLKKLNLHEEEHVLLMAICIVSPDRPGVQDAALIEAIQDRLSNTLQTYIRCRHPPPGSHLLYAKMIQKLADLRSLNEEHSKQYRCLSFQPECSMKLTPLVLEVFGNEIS

Substance: endogenous PIM-1 isoform 2 of human HaCaT keratinocytes (from UniProt P11309) (enzyme)
- binding [1]: binds

Substance: full-length human PIM-1 kinase isoform 2, GAL4 activation domain fusion (PIM-1-pAD-Gate2) (enzyme)
- binding [2]: binds
- binding [3]: binds
- binding [4]: no binding

No constants are given. Whether binding was seen depends on the method and setting. For some of these results: Binding can be weak; no strength is given. For some of these results: Tags and fused reporters may be left off the sequences shown. For some of these results: Binding seen in cells or lysates may run through a third protein.
